“Also recorded” adds a separate entry of the source.
System: DPPIV, MMP-2, leukocyte elastase, cathepsin G
Assay: Protease resistance profile based on FRET-peptide cleavage assay
Assay type: biochemical
Conditions: proteases the variant is resistant to

Substance	Resistance
SSDF-1 (L5K): SDF-1 with Leu→Lys at position 5 and N-terminal serine	DDPIV, MMP-2,; also recorded: Elastase
SSDF-1 (L5P): SDF-1 with Leu→Pro at position 5 (SEQ ID NO:66) and N-terminal serine	DDPIV, MMP-2,; also recorded: elastase,; also recorded: cathepsin G
SSDF-1 (S6C): SDF(S6C) (SEQ ID NO:61) with N-terminal serine	DPPIV, MMP-2
SSDF-1 (S4V): SDF-1(S4V) (SEQ ID NO:65) with a serine residue added at the N-terminus	DDPIV, MMP-2
SSDF-1 (V3H): SDF(V3H) (SEQ ID NO:54) with N-terminal serine	DPPIV, elastase
SSDF-1 (L5W): SDF-1 with Leu→Trp at position 5 and N-terminal serine	DDPIV, MMP-2
SSDF-1 (V3D): SDF-1 with Val→Asp at position 3 and N-terminal serine	DDPIV, MMP-2,; also recorded: elastase,; also recorded: Cathepsin G
SSDF-1: SDF-1 with a serine residue added at the N-terminus	DPPIV
SSDF-1 (V3C): SDF(V3C) (SEQ ID NO:55) with N-terminal serine	DPPIV, elastase
SSDF-1 (L5H): SDF-1 with Leu→His at position 5 and N-terminal serine	DDPIV, MMP-2,; also recorded: Cathepsin G
SSDF-1 (V3P): SDF-1 with Val→Pro at position 3 and N-terminal serine	DDPIV, MMP-2,; also recorded: elastase,; also recorded: Cathepsin G
SSDF-1 (L5D): SDF-1 with Leu→Asp at position 5 and N-terminal serine	DDPIV, MMP-2,; also recorded: Elastase,; also recorded: Cathepsin G
SSDF-1 (L5V): SDF(L5V) (SEQ ID NO:60) with N-terminal serine	DPPIV, MMP-2,; also recorded: Cathepsin G
SSDF-1 (L5T): SDF(L5T) (SEQ ID NO:56) with N-terminal serine	DPPIV, MMP-2,; also recorded: Cathepsin G
SSDF-1 (V3G): SDF-1 with Val→Gly at position 3 and N-terminal serine	DDPIV,; also recorded: elastase,; also recorded: Cathepsin G
SSDF-1 (S6G): SDF(S6G) (SEQ ID NO:62) with N-terminal serine	DPPIV, MMP-2,; also recorded: Cathepsin G
SSDF-1 (L5E): SDF-1 with Leu→Glu at position 5 and N-terminal serine	DDPIV, MMP-2,; also recorded: elastase,; also recorded: cathepsin G
